From PubChem BioAssay AID540256 (National Center for Advancing Translational Sciences (NCATS), 2011)
The whole screen tested about 300,000 compounds, of which about 3,700 (1.2%) were called active. This list was built around the results that the source calls inconclusive (neither active nor inactive); the mix of calls is not that of the screen. Calls follow the shape of the full dose curve; tested in HEK293 cells. Potencies beside an inconclusive call are fits to weak or partial responses and may not hold up.

test: qHTS for Inhibitors of binding or entry into cells for Lassa Virus; details: Lassa virus pseudotype entry inhibition, cell reporter; activity change, negative = inhibition: at 37.9 µM (top of the series) unless noted; also: nearly all actives have a fitted effect of over 50% in size
% is scaled to controls: 0 for no effect and ±100 for the full control effect; potency is read from the fitted curve at half-maximal effect.

| SMILES | Potency | activity change, negative = inhibition |
| --- | --- | --- |
| Nc1c2c(nc3cccc(Cl)c13)N(c1ccccc1)CC2 | inconclusive: 3.55 µM [activator, full curve, poor fit] |  |
| COc1cc(NC(=O)COC(=O)CNC(=O)c2ccc(C)s2)cc(OC)c1 |  | inactive: -14.9% |
| Cc1ccc(C)c(Nc2c([N+](=O)[O-])cc(C(=O)N3CC(=O)Nc4ccccc43)cc2[N+](=O)[O-])c1 | inconclusive: 12.6 µM [inhibitor, single point] |  |
| CCOCCCNC(=O)C(=O)Nc1c2c(nn1-c1ccccc1)CSC2 | inconclusive: 35.5 µM [inhibitor, single point] |  |
| CN(C)S(=O)(=O)N1CCc2ccc(NC(=O)c3ccccc3Cl)cc2C1 |  | inactive: -3.97% [at 46.1 µM] |
| CC(=O)c1ccc(NC(=O)c2cc3sccc3n2Cc2ccc(Cl)cc2)cc1 |  | inactive: 0.65% [at 46.1 µM] |
| O=C(Cc1ccc(Cl)cc1Cl)OCC(=O)N1CCCCC1 | inconclusive: 35.5 µM [activator, single point] |  |
| O=C(NCCOc1ccc(Cl)cc1)c1ccc2ccccc2n1 |  | inactive: -16.9% |
| CC(C)CCNC(=O)c1ccc(CSCc2cccc(F)c2)o1 | inconclusive: 10 µM [inhibitor, partial curve, poor fit] |  |
| Oc1ccccc1C=NNC(=S)Nc1ccc(F)cc1 | inconclusive: 6.31 µM [inhibitor, partial curve, poor fit] |  |
| Cc1cccc(C(=O)NC(NCCc2ccccc2)C(Cl)(Cl)Cl)c1 (centres undefined) | inconclusive: 18.3 µM [inhibitor, single point] |  |
| COc1cc(NS(=O)(=O)c2ccc(NC(=O)C3CCCO3)cc2)nc(OC)n1 (centres undefined) |  | inactive: -4.88% |
| Cc1ccc(NC(=S)N/N=C/c2cccn2Cc2ccccc2F)cc1 | inconclusive: 3.16 µM [inhibitor, single point] |  |
| CCOC(=O)C1=C(C)OC(N)=C(C#N)C1c1cc(SCC)oc1C (centres undefined) |  | inactive: 4.13% [at 46.1 µM] |
| COc1ccc(-c2cc(C(=O)N3CCCCCC3)c3ccccc3n2)c(OC)c1 | inconclusive: 8.91 µM [inhibitor, partial curve, poor fit] |  |
| COc1ccc(/C=N/NC(=O)c2ccccc2O)cc1CSc1ccccn1 |  | inactive: 7.1% |
| Cc1ccnc(OC(C(=O)O)C(OCc2ccccc2)(c2ccc(F)cc2)c2ccc(F)cc2)n1 (centres undefined) | inconclusive: 17.8 µM [inhibitor, single point] |  |
| Cc1ccc(NC(=O)Cc2c(C(=O)O)n(C)c3ccccc23)cc1F | inconclusive: 11.2 µM [inhibitor, partial curve, poor fit] |  |
| CC(=O)N1N=C(c2ccccc2OC(=O)/C=C/c2ccccc2)CC1c1ccccc1 (centres undefined) | inconclusive: 22.4 µM [inhibitor, partial curve, poor fit] |  |
| O=C(Nc1ncccc1O)c1ccc(S(=O)(=O)Nc2ccccc2)cc1 | inconclusive: 11.2 µM [inhibitor, single point] |  |
| CC(=O)N(CCC1(C(C)C)CCOC(C)(C)C1)C(C)c1cccs1 (centres undefined) | inconclusive: 17.8 µM [inhibitor, single point] |  |
| c1ccc(-c2nc(NCc3cccnc3)c3ccccc3n2)cc1 |  | inactive: -0.711% |

Gathered by group: those above containing a COOH group

| SMILES | Potency | activity change, negative = inhibition |
| --- | --- | --- |
| Cc1ccnc(OC(C(=O)O)C(OCc2ccccc2)(c2ccc(F)cc2)c2ccc(F)cc2)n1 (centres undefined) | inconclusive: 17.8 µM [inhibitor, single point] |  |
| Cc1ccc(NC(=O)Cc2c(C(=O)O)n(C)c3ccccc23)cc1F | inconclusive: 11.2 µM [inhibitor, partial curve, poor fit] |  |

(list continues)

| SMILES | Potency | activity change, negative = inhibition |
| --- | --- | --- |
| Cc1nn(-c2nc3ccccc3s2)c(C)c1Oc1ccccc1O | inconclusive: 5.17 µM [inhibitor, full curve, poor fit] |  |
| CCOC(=O)C(O)(c1ccc(NC(=S)NC(=O)c2ccc(Cl)cc2Cl)c(C)c1)C(F)(F)F (centres undefined) | active: 10.3 µM |  |
| O=C(c1ccc(S(=O)(=O)Cc2ccccc2Cl)c([N+](=O)[O-])c1)N1CCOCC1 | inconclusive: 8.91 µM [inhibitor, partial curve, poor fit] |  |
| O=C(Nc1cccc2cccnc12)c1ccc(-c2cccc(Cl)c2)o1 |  | inactive: -0.629% [at 46.1 µM] |
| O=C(CN(C1CCCCC1)S(=O)(=O)c1ccc(F)cc1)NCC1CCCO1 (centres undefined) | inconclusive: 35.5 µM [inhibitor, single point] |  |
| Cc1cc(C)cc(CC(Cc2nc3ccccc3[nH]2)c2nc3ccccc3[nH]2)c1 (centres undefined) | inconclusive: 35.5 µM [inhibitor, single point] |  |
| C=CCSc1n[nH]c(-c2ccc(OCCC)cc2)n1 | inconclusive: 25.9 µM [inhibitor, single point] |  |
| O=C1C(NS(=O)(=O)c2cccs2)=C(N2CCOCC2)C(=O)c2ccccc21 | inconclusive: 25.1 µM [inhibitor, single point] |  |
| O=C(c1ccc2c(c1)N(Cc1c(F)cccc1Cl)C(=O)c1ccccc1S2)N1CCCC1 | inconclusive: 35.5 µM [inhibitor, single point] |  |
| Cc1ccc(Cl)cc1-n1ncc2c(Nc3ccc4c(c3)OCCO4)ncnc21 | inconclusive: 35.5 µM [activator, single point] |  |
| O=C(COc1ccc(Br)cc1)N1CCN(S(=O)(=O)/C=C/c2ccccc2)CC1 | inconclusive: 11.2 µM [inhibitor, partial curve, poor fit] |  |
| COc1ccccc1OCCCn1c(=O)sc2ccccc21 |  | inactive: 6.95% |
| Cc1ccc2cc(CN(CCCN3CCOCC3)C(c3nnnn3Cc3ccco3)C(C)C)c(=O)[nH]c2c1C (centres undefined) |  | inactive: 2.69% |
| CSCCC(NC(=O)C1CCC(C)CC1)C(=O)OCC(=O)c1ccc(Cl)cc1 (centres undefined) | inconclusive: 0.631 µM [activator, partial curve, poor fit] |  |
| Cc1cccc(/C=N\NC(=O)c2ccc(Cl)cc2)c1O | active: 11.2 µM |  |
| COc1ccc(NC(=O)Nc2ccccc2OC)cc1 |  | inactive: 0.228% |
| Fc1cccc(NC(=S)NCCc2ccccc2)c1 | inconclusive: 12.6 µM [inhibitor, partial curve, poor fit] |  |
| O=C(O)CCCCCCCCCCC1CCC(O)C1O (centres undefined) |  | inactive: -9.37% [at 46.1 µM] |
| COc1ccc(-c2nc(CCNC(=O)c3ccccc3)cs2)cc1OC | inconclusive: 35.5 µM [inhibitor, single point] |  |
| CCOC(=O)c1cc(S(=O)(=O)N2CCN(C(=O)OCC)CC2)cn1C | inconclusive: 7.08 µM [inhibitor, partial curve, poor fit] |  |
| CC(C)(C)c1ccc(S(=O)(=O)N2CCNC(=O)C2)cc1 |  | inactive: 23.2% [at 46.1 µM] |
| N#Cc1nc(COc2ccccc2)oc1NCCCn1ccnc1 | inconclusive: 6.31 µM [activator, single point] |  |
